No constants are given. Whether binding was seen depends on the method and setting. For some of these results: Binding seen in cells or lysates may run through a third protein. Some entries that bind do so weakly or less than the wild type. For some of these results: Where a sequence is shown, tags or fusion partners need not be part of it.
What was measured:
[1] = molecular target: T1, eGFP-PLCβ1 (UniProt P10687); assay: FRET or BRET
T1 sequence: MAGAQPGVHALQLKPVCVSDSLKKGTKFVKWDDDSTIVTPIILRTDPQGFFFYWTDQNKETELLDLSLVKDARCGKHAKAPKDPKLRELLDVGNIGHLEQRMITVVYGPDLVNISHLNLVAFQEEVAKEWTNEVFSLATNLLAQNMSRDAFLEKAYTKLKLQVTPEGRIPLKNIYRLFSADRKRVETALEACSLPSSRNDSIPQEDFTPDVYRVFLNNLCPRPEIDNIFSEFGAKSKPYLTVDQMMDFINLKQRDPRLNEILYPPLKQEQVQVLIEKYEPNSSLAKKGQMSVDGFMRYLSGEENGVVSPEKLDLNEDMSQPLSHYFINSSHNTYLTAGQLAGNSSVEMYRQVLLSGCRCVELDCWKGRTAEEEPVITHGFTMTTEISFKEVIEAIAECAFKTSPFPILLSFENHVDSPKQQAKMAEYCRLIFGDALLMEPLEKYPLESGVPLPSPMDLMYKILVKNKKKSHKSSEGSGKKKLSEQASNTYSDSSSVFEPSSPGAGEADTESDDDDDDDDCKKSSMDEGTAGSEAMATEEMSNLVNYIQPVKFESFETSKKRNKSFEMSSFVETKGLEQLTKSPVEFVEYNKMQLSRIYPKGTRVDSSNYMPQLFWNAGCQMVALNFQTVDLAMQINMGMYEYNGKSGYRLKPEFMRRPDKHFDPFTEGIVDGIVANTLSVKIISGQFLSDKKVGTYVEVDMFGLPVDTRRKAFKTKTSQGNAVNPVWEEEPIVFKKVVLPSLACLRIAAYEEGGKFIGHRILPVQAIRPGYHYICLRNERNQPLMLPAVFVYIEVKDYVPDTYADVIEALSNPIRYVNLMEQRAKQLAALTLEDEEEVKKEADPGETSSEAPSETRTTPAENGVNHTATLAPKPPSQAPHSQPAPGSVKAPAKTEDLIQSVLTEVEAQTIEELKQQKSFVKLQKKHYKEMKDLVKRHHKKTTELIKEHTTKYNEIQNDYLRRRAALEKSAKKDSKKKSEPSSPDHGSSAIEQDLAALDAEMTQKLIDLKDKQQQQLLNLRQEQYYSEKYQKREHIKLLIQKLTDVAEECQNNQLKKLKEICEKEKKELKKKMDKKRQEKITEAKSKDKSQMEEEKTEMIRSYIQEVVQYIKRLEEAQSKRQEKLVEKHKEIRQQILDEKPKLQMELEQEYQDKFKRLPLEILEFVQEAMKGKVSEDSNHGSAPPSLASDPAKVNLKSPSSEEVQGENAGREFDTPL

Chains of the proteins cited; added tags and fusions are not shown.
UniProt P63241: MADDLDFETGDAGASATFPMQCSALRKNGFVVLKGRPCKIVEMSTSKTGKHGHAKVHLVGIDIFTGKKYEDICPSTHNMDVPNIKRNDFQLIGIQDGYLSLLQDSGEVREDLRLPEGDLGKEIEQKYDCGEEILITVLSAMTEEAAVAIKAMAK
UniProt Q13283: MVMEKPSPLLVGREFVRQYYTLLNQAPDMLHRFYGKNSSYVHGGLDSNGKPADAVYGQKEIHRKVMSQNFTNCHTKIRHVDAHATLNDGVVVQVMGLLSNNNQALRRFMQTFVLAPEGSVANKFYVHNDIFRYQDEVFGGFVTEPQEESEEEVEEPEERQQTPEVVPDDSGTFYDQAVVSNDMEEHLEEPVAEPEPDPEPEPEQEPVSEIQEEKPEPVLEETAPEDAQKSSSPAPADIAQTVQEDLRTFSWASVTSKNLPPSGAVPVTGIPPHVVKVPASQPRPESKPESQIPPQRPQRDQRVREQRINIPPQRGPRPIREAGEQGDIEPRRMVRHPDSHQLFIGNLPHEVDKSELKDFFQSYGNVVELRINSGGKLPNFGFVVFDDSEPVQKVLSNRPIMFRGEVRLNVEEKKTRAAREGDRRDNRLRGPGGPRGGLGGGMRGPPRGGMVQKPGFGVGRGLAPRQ
UniProt Q9UKV8: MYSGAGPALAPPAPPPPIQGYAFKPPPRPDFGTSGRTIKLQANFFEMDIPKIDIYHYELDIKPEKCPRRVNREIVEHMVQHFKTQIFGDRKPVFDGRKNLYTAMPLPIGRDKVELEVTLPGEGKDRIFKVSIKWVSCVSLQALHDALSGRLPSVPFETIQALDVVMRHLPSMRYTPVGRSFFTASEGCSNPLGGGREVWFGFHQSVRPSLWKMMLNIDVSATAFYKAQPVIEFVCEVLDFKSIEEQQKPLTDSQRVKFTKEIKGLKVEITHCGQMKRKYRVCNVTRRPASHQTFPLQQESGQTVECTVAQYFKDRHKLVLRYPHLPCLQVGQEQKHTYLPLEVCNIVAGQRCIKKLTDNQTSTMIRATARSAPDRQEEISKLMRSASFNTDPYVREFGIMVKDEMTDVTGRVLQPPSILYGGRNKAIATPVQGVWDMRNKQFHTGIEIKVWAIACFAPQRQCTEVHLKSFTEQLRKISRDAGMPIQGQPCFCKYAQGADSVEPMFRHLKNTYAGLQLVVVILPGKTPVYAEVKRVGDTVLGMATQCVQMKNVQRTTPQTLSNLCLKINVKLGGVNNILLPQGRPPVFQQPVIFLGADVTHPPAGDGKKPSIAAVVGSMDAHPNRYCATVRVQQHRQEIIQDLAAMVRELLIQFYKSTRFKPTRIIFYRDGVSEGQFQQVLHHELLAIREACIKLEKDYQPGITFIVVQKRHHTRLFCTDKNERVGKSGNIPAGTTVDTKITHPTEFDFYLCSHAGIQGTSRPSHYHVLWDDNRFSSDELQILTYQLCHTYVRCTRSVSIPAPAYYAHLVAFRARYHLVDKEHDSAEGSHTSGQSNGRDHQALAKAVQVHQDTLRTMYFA

[2] = molecular target: T2, PLCβ1, purified (cross-linking) (UniProt P10687); assay: cross-linking
T2 sequence: T1 sequence

[3] = molecular target: T3, phospholipase Cβ1 (PLCβ1), endogenous (rat (endogenous in PC12 and A10)) (UniProt P10687); assay: co-IP
T3 sequence: T1 sequence

binding [1]	binding [2]	binding [3]	Substance
binds	binds		eIF5A, purified, unlabeled (from UniProt P63241 1-154)
no binding			eGFP-G3BP1 (from UniProt Q13283 1-466)
		binds	Ago2, over-expressed (from UniProt Q9UKV8 1-859)
